For seven molecules, binding results are on record in PMC9599757, “Leveraging the Structure of DNAJA1 to Discover Novel Potential Pancreatic Cancer Therapies” (Biomolecules, 2022).

Chains of the proteins cited; added tags and fusions are not shown. Residues count along the entry.
UniProt P00367, residues 54-558: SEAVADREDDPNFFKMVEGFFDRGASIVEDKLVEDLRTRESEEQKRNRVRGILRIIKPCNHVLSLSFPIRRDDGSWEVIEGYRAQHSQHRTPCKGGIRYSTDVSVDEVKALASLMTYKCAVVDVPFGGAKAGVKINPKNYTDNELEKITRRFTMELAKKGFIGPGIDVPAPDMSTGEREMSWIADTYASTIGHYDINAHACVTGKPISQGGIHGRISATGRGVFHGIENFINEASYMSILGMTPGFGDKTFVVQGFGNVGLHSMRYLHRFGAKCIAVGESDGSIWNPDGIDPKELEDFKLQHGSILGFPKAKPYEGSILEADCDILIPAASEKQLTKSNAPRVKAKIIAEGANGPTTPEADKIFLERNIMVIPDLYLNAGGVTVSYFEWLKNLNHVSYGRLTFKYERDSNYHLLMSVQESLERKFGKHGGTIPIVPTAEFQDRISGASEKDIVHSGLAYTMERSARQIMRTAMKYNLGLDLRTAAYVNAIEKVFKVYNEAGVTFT
UniProt P14136: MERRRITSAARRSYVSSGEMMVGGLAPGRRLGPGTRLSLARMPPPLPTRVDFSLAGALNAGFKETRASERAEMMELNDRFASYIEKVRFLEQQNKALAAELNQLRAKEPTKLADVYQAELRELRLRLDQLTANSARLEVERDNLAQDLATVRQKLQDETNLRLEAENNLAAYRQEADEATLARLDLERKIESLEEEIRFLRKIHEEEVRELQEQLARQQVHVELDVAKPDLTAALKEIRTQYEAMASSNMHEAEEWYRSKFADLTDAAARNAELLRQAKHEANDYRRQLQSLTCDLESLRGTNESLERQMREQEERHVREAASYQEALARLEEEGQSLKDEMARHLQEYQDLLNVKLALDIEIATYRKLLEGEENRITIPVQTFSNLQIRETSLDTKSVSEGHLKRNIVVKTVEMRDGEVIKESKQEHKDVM
UniProt P02545, residues 1-646: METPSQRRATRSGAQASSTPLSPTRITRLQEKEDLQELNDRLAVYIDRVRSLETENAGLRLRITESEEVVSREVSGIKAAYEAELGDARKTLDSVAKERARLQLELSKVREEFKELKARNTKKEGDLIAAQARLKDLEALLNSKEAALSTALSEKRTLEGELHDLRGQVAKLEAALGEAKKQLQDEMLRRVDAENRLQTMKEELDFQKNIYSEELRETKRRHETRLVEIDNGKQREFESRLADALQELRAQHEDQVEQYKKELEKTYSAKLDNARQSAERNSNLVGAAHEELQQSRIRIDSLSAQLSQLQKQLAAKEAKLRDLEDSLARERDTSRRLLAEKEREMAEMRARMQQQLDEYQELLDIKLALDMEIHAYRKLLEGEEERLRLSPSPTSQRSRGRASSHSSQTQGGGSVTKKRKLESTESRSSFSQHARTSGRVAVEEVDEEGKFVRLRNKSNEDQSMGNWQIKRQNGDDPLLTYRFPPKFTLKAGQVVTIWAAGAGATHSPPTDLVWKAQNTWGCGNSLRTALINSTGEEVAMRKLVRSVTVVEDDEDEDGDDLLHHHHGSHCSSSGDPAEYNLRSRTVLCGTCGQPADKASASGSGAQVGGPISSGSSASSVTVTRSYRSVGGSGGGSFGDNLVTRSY

No constants are given. Whether binding was seen depends on the method and setting. Binding seen in cells or lysates may run through a third protein. A yes stands for co-enrichment or nearness to the bait. Other partners may have been found.

The target of this assay is DNAJA1-107 (residues 1 to 107 of human DnaJ homolog subfamily A member 1) (human) (UniProt P31689). As to the kind of experiment: affinity purification with mass spectrometry; Pierce His Protein Interaction Pull-Down Kit: 6x-His DNAJA1-107 immobilised on HisPur cobalt resin, incubated 2 h with clarified RIPA lysate of MIA PaCa-2 cells; co-eluted, SDS-PAGE, bands excised, trypsin digested, LC-MS; control: resin only; only the target purified.

As to “Glutamate dehydrogenase 1, mitochondrial (from UniProt P00367 54-558)”, the binding entry is recorded as “binds”. For “Creatine kinase U-type, mitochondrial (from UniProt P12532 40-417)”, the binding result is “binds”.

Turning to “Glial fibrillary acidic protein (from UniProt P14136 1-432)”, the binding result is listed as “binds”. The result for “Prelamin-A/C (from UniProt P02545 1-646)” reads “binds”.

B1: ADP/ATP translocase 3 (protein, UniProt P12236 1-298)
chain: MTEQAISFAKDFLAGGIAAAISKTAVAPIERVKLLLQVQHASKQIAADKQYKGIVDCIVRIPKEQGVLSFWRGNLANVIRYFPTQALNFAFKDKYKQIFLGGVDKHTQFWRYFAGNLASGGAAGATSLCFVYPLDFARTRLAADVGKSGTEREFRGLGDCLVKITKSDGIRGLYQGFSVSVQGIIIYRAAYFGVYDTAKGMLPDPKNTHIVVSWMIAQTVTAVAGVVSYPFDTVRRRMMMQSGRKGADIMYTGTVDCWRKIFRDEGGKAFFKGAWSNVLRGMGGAFVLVLYDELKKVI
As for B1, the binding entry is on record as “binds”.

B2: Non-POU domain-containing octamer-binding protein (protein, UniProt Q15233 1-471)
chain: MQSNKTFNLEKQNHTPRKHHQHHHQQQHHQQQQQQPPPPPIPANGQQASSQNEGLTIDLKNFRKPGEKTFTQRSRLFVGNLPPDITEEEMRKLFEKYGKAGEVFIHKDKGFGFIRLETRTLAEIAKVELDNMPLRGKQLRVRFACHSASLTVRNLPQYVSNELLEEAFSVFGQVERAVVIVDDRGRPSGKGIVEFSGKPAARKALDRCSEGSFLLTTFPRPVTVEPMDQLDDEEGLPEKLVIKNQQFHKEREQPPRFAQPGSFEYEYAMRWKALIEMEKQQQDQVDRNIKEAREKLEMEMEAARHEHQVMLMRQDLMRRQEELRRMEELHNQEVQKRKQLELRQEEERRRREEEMRRQQEEMMRRQQEGFKGTFPDAREQEIRMGQMAMGGAMGINNRGAMPPAPVPAGTPAPPGPATMMPDGTLGLTPPTTERFGQAATMEGIGAIGGTPPAFNRAAPGAEFAPNKRRRY
In the case of B2, the binding entry was “binds”.

B3: Non-structural maintenance of chromosomes element 1 homolog (protein, UniProt Q8WV22 1-266)
chain: MQGSTRRMGVMTDVHRRFLQLLMTHGVLEEWDVKRLQTHCYKVHDRNATVDKLEDFINNINSVLESLYIEIKRGVTEDDGRPIYALVNLATTSISKMATDFAENELDLFRKALELIIDSETGFASSTNILNLVDQLKGKKMRKKEAEQVLQKFVQNKWLIEKEGEFTLHGRAILEMEQYIRETYPDAVKICNICHSLLIQGQSCETCGIRMHLPCVAKYFQSNAEPRCPHCNDYWPHEIPKVFDPEKERESGVLKSNKKSLRSRQH
B3: the binding result is on record as “binds”.
